{
  "sequences": {"note": "Protein sequences, listed by entry. Tags and fused reporters are not part of them. Residues count along the entry.", "UniProt P33681, 35-242 limits assumed": "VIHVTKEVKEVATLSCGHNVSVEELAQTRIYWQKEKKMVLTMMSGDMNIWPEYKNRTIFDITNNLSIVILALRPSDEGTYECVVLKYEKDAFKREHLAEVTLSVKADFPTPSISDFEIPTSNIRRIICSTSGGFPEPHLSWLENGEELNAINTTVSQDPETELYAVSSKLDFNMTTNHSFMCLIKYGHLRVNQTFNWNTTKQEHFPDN"},
  "source": "patent US7291612B2",
  "about": "“Immunomodulatory compounds” (Active Biotech A.B., priority 2002, dated 2007)",
  "target": "CD80-CD28 interaction (Homo sapiens, UniProt P33681)",
  "test": "cell free Homogenous Time Resolved Fluorescence (HTRF) assay, inhibition of the CD80-CD28 interaction",
  "conditions": "read-out: Activity (EC50 in summary form), 4 hours at room temperature",
  "note": "Structures were worked out from names or drawings and are uncertain.",
  "data": [
    {"smiles": "CC(C)NC(=O)Nc1ccc(-n2nc3c4cccc(F)c4[nH]cc-3c2=O)cc1", "values": [
      {"measurement": "EC50", "result": "< 1000", "unit": "nM"}
    ]}
  ]
}
